Data from the supplement of paper PMC4604168 (melanoma cell lines).
Some of the results follow. Many values rest on one well or one pass, so single values are uncertain.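 The apoptosis fraction was the count of cleaved-PARP antibody-stained nuclei relative to all DNA-stained nuclei, imaged in 1,536-well plates. Screening doses were set so most cells survived, and baseline and induced cleaved-PARP levels vary greatly across cell lines.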

System: 501Mel
Assay: cleaved PARP positive nuclei fraction relative to DMSO control; melanoma cells; higher = more apoptosis
Settings: library dose: low library concentration; 72 h

Structure (SMILES) | cleaved PARP positive nuclei fraction [%]
CCCS(=O)(=O)Nc1ccc(F)c(C(=O)c2c[nH]c3ncc(Cl)cc23)c1F + Oc1nc(-c2ccc(C(F)(F)F)cc2)nc2c1CSCC2 [XAV939] (first compound 0.08 µM, partner dose 2 µM) | 69.9
Nc1nc(F)nc2c1ncn2[C@@H]1O[C@H](CO)[C@@H](O)[C@@H]1O [fludarabine] + COc1ccc(-c2ccc3c(N4CCOCC4)nc(N4C[C@@H](C)O[C@@H](C)C4)nc3n2)cc1CO [KU0063794] (first compound 0.2 µM, partner dose 0.02 µM) | 1900
CS(=O)(=O)CCNCc1ccc(-c2ccc3ncnc(Nc4ccc(OCc5cccc(F)c5)c(Cl)c4)c3c2)o1 [lapatinib] + O=C(Nc1ccccc1)c1cc([N+](=O)[O-])ccc1Cl [GW9662] (first compound 0.8 µM, partner dose 2 µM) | 77.1
C=C(c1ccc(C(=O)O)cc1)c1cc2c(cc1C)C(C)(C)CCC2(C)C [Bexarotene] + CCc1ccc(CCOc2ccc(CC3SC(=O)NC3=O)cc2)nc1 [pioglitazone] (first compound 2 µM, partner dose 2 µM) | 65.1
C=C(c1ccc(C(=O)O)cc1)c1cc2c(cc1C)C(C)(C)CCC2(C)C [Bexarotene] + c1cc(-c2cnn3cc(-c4ccc(OCCN5CCCCC5)cc4)cnc23)ccn1 [Dorsomorphin] (first compound 2 µM, partner dose 0.4 µM) | 145
CS(=O)(=O)CCNCc1ccc(-c2ccc3ncnc(Nc4ccc(OCc5cccc(F)c5)c(Cl)c4)c3c2)o1 [lapatinib] + COc1cc(N2CCC(N3CCN(C)CC3)CC2)ccc1Nc1ncc(Cl)c(Nc2ccccc2S(=O)(=O)C(C)C)n1 [NVP-TAE684] (first compound 0.8 µM, partner dose 0.08 µM) | 158
CNC(=O)c1cc(Oc2ccc(NC(=O)Nc3ccc(Cl)c(C(F)(F)F)c3)cc2)ccn1 [sorafenib] + CCN(CC)CCCCNc1ncc2cc(-c3cc(OC)cc(OC)c3)c(NC(=O)NC(C)(C)C)nc2n1 [PD173074] (first compound 0.4 µM, partner dose 0.1 µM) | 60.2
CO[C@H]1C[C@@H]2CC[C@@H](C)[C@@](O)(O2)C(=O)C(=O)N2CCCC[C@H]2C(=O)O[C@H]([C@H](C)C[C@@H]2CC[C@@H](OCCO)[C@H](OC)C2)CC(=O)[C@H](C)/C=C(\C)[C@@H](O)[C@@H](OC)C(=O)[C@H](C)C[C@H](C)/C=C/C=C/C=C/1C [everolimus] + O=C1NC(=O)/C(=C/c2ccc(-c3ccc(F)cc3O)o2)S1 [AS252424] (first compound 0.02 µM, partner dose 1 µM) | 115
